Measured values reported in US9526786B2, “Thermostabilization of proteins” (The Trustee of Columbia University in the City of New York, priority 2007, dated 2016).
For some assays here: At least one structure is not confirmed: it was looked up by name or label, or the drawing left a doubt. Some of these results come from one statement about several compounds together. Some ranges recur; such a range may be that of the whole group of compounds.

How the values were obtained:
CocE [1] = target: T1, CocE (Rhodococcus sp., UniProt Q9L9D7); format: biochemical, Rhodococcus sp. MB 1; conditions: cocaine: 62.5 and 125 μM; benzoic acid: higher concentrations
T1 construct: 6xHis (C); made in house; host or cells: E. coli BL-21 Gold (DE3), pET-22b(+)
T1 sequence (Q9L9D7 1-574): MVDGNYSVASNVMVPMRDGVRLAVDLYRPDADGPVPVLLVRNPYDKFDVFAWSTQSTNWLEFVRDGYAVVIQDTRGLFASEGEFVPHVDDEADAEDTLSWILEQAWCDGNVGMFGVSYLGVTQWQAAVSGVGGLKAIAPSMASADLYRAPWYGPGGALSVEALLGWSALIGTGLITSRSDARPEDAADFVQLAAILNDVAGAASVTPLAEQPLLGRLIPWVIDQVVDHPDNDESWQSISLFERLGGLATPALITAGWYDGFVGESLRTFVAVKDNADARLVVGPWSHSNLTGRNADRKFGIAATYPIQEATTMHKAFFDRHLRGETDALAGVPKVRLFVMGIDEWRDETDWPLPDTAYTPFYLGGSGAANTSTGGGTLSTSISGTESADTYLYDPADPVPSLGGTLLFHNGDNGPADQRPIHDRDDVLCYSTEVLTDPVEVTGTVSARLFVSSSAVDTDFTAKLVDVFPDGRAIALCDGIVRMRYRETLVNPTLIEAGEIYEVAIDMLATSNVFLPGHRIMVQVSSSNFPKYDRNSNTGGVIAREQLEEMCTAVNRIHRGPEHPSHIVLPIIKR
Procedure: CocE is also able to cleave another substrate, 4-nitrophenyl acetate (FIG. 3). Cleavage is monitored by detection of the appearance of the 4-nitrophenol reaction product, which absorbs at 400 nm.
Further spectrophotometric analysis of cocaine stabilization was performed, by analyzing the ability of CocE to cleave 4-nitrophenyl acetate, after preincubation at 37° C. for various times, in the presence of various concentrations of cocaine. […] However, preincubation of CocE at the higher concentrations for various times at 37° C. indicated the enzyme was stabilized enough to be able to cleave the 4-nitrophenyl substrate (FIG. 5).

CocE [2] = target: T1, CocE; format: biochemical, Rhodococcus sp. MB 1
Procedure: Further spectrophotometric analysis of cocaine stabilization was performed, by analyzing the ability of CocE to cleave 4-nitrophenyl acetate, after preincubation at 37° C. for various times, in the presence of various concentrations of cocaine.

CocE WT = target: T2, CocE WT (Rhodococcus sp., UniProt Q9L9D7); assay: Inhibition of CocE WT aggregate formation, non-denaturing gel, 1 hour at 37° C.; parameters: species or system Rhodococcus sp. MB 1
T2 construct: 6xHis (C); made in house; host or cells: E. coli BL-21 Gold (DE3), pET-22b(+)
T2 sequence (Q9L9D7 1-574): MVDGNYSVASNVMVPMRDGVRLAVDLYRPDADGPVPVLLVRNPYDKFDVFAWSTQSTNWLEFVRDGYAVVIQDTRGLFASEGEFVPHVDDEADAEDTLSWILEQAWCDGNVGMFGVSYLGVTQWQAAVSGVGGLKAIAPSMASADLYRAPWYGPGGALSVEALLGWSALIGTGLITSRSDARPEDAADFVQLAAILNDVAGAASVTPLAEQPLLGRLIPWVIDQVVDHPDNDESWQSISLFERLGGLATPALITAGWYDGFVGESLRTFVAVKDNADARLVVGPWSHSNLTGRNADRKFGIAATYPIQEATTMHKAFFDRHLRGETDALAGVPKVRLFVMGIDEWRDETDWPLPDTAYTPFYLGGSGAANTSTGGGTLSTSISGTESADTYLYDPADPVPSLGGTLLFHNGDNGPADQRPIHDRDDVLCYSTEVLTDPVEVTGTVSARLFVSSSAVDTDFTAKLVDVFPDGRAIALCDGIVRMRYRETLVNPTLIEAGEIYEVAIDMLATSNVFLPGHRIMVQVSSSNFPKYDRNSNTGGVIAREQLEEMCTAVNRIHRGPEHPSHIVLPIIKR
Excerpt: To further study CocE stabilization with small molecules, other inhibitors of the CocE cleavage reaction were considered.

[3] = 37° C., within 90 min
Procedure: Analysis of CocE action on cocaine cleavage is performed by utilizing the spectroscopic properties of cocaine, which maximally absorbs light at a 240 nm wavelength. CocE activity is measured by monitoring for a decrease in signal at A240, using various concentrations of cocaine, and determining the initial rate of the decrease. From these values the Vmax of the enzyme can be determined. By pre-incubating the enzyme at 37° C. for various times before monitoring for activity, the half life of CocE at 37° C. can be calculated.
The initial rates (of decay) were determined by following the change in the intrinsic absorbance of cocaine at 240 nm (6700 M^1 cm^1)(Xie et al., 1999) using a SpectraMax Plus 384 UV plate reader (Molecular Devices, Sunnyvale, Calif.) using SOFTmax Pro software (Version 3.1.2). The reaction was initiated by adding 100 μL of a 2× enzyme solution (100 mM phosphate buffer, pH 7.4 and 300 mM NaCl) to 100 μL of a 2× cocaine solution (50 μg/mL enzyme, 100 mM Phosphate Buffer, pH 7.4 and 300 mM NaCl). All assays were performed with 100 μM DTT unless indicated otherwise. […] For stability measurements, wild type and mutant enzymes were diluted to 2× concentration and incubated at 37° C. for the times indicated. At the end of each time point, an aliquot was removed and kinetic behavior was observed as outlined above.
In vitro kinetic assays. […]

[4] = test system: cocaine-induced lethality; assay: In vivo potency of protection against cocaine-induced lethality; conditions: enzyme 0.3 mg (9 mg/kg) i.v.; vehicle 100 mg/kg

**Q.** Which “inhibition of 4-nitrophenyl acetate cleavage” value (CocE [1]) does the source give for `COC(=O)[C@H]1[C@@H](OC(=O)c2ccccc2)C[C@@H]2CC[C@H]1N2C` [cocaine] here?
**A.** Its value is “inhibitor”.

**Q.** And the “stabilization of CocE at 37° C., higher concentrations” value (CocE [2]; cocaine 62.5 and 125 μM, benzoic acid above 125 μM)?
**A.** The value was “stabilized”.

**Q.** And the “stabilization of CocE at 37° C., lower concentrations” value (CocE [2]; cocaine lower than 62.5 μM, others below 125 μM)?
**A.** The value was “not found to be stabilizing”.

**Q.** What about the “inhibition of formation of CocE protein aggregates” value (CocE WT) of the same molecule?
**A.** The value was “inhibited the formation of aggregates”.

B1: wt-CocE: cocaine esterase of Rhodococcus sp. MB 1, SEQ ID NO:1 (protein, listed as Rhodococcus sp.)
chain: MVDGNYSVASNVMVPMRDGVRLAVDLYRPDADGPVPVLLVRNPYDKFDVFAWSTQSTNWLEFVRDGYAVVIQDTRGLFASEGEFVPHVDDEADAEDTLSWILEQAWCDGNVGMFGVSYLGVTQWQAAVSGVGGLKAIAPSMASADLYRAPWYGPGGALSVEALLGWSALIGTGLITSRSDARPEDAADFVQLAAILNDVAGAASVTPLAEQPLLGRLIPWVIDQVVDHPDNDESWQSISLFERLGGLATPALITAGWYDGFVGESLRTFVAVKDNADARLVVGPWSHSNLTGRNADRKFGIAATYPIQEATTMHKAFFDRHLRGETDALAGVPKVRLFVMGIDEWRDETDWPLPDTAYTPFYLGGSGAANTSTGGGTLSTSISGTESADTYLYDPADPVPSLGGTLLFHNGDNGPADQRPIHDRDDVLCYSTEVLTDPVEVTGTVSARLFVSSSAVDTDFTAKLVDVFPDGRAIALCDGIVRMRYRETLVNPTLIEAGEIYEVAIDMLATSNVFLPGHRIMVQVSSSNFPKYDRNSNTGGVIAREQLEEMCTAVNRIHRGPEHPSHIVLPIIKR
**Q.** For B1, which activity remaining [3] is on record?
**A.** Its activity remaining is “less than 10%”.

**Q.** And the “LD50 value of cocaine after enzyme” value [4]?
**A.** Its value is 560 and 670 mg/kg.

B2: T172R: CocE mutant (protein, listed as Rhodococcus sp.)
chain: MVDGNYSVASNVMVPMRDGVRLAVDLYRPDADGPVPVLLVRNPYDKFDVFAWSTQSTNWLEFVRDGYAVVIQDTRGLFASEGEFVPHVDDEADAEDTLSWILEQAWCDGNVGMFGVSYLGVTQWQAAVSGVGGLKAIAPSMASADLYRAPWYGPGGALSVEALLGWSALIGRGLITSRSDARPEDAADFVQLAAILNDVAGAASVTPLAEQPLLGRLIPWVIDQVVDHPDNDESWQSISLFERLGGLATPALITAGWYDGFVGESLRTFVAVKDNADARLVVGPWSHSNLTGRNADRKFGIAATYPIQEATTMHKAFFDRHLRGETDALAGVPKVRLFVMGIDEWRDETDWPLPDTAYTPFYLGGSGAANTSTGGGTLSTSISGTESADTYLYDPADPVPSLGGTLLFHNGDNGPADQRPIHDRDDVLCYSTEVLTDPVEVTGTVSARLFVSSSAVDTDFTAKLVDVFPDGRAIALCDGIVRMRYRETLVNPTLIEAGEIYEVAIDMLATSNVFLPGHRIMVQVSSSNFPKYDRNSNTGGVIAREQLEEMCTAVNRIHRGPEHPSHIVLPIIKR
**Q.** For B2, which “LD50 value of cocaine after enzyme” value [4] is on record?
**A.** The value was 560 and 670 mg/kg.

B3: T172R/G173Q: CocE double mutant (protein, listed as Rhodococcus sp.)
chain: MVDGNYSVASNVMVPMRDGVRLAVDLYRPDADGPVPVLLVRNPYDKFDVFAWSTQSTNWLEFVRDGYAVVIQDTRGLFASEGEFVPHVDDEADAEDTLSWILEQAWCDGNVGMFGVSYLGVTQWQAAVSGVGGLKAIAPSMASADLYRAPWYGPGGALSVEALLGWSALIGRQLITSRSDARPEDAADFVQLAAILNDVAGAASVTPLAEQPLLGRLIPWVIDQVVDHPDNDESWQSISLFERLGGLATPALITAGWYDGFVGESLRTFVAVKDNADARLVVGPWSHSNLTGRNADRKFGIAATYPIQEATTMHKAFFDRHLRGETDALAGVPKVRLFVMGIDEWRDETDWPLPDTAYTPFYLGGSGAANTSTGGGTLSTSISGTESADTYLYDPADPVPSLGGTLLFHNGDNGPADQRPIHDRDDVLCYSTEVLTDPVEVTGTVSARLFVSSSAVDTDFTAKLVDVFPDGRAIALCDGIVRMRYRETLVNPTLIEAGEIYEVAIDMLATSNVFLPGHRIMVQVSSSNFPKYDRNSNTGGVIAREQLEEMCTAVNRIHRGPEHPSHIVLPIIKR
**Q.** With B3 as the molecule, how does the “LD50 value of cocaine after enzyme” value [4] read?
**A.** The value was 560 and 670 mg/kg.
